{"source": "patent US20230321105A1", "about": "“CELL SIGNAL DETECTION AND MODULATION IN DISEASE” (Washington University, priority 2022, published 2023)", "key": {"glioblastoma": {"tested_on": "glioblastoma", "conditions": "ruxolitinib combined with radiation and temozolomide; NCT03514069; cited from earlier work"}, "[1]": {"tested_on": "pancreatic adenocarcinoma, breast cancer, colorectal cancer, and lung cancer", "conditions": "cited from earlier work"}, "STAT signaling": {"tested_on": "STAT signaling", "conditions": "cited from earlier work"}, "mouse models of cancers": {"tested_on": "mouse models of cancers", "conditions": "many mouse models of cancers; cited from earlier work"}, "CXCL1/8 and S100A8/A9": {"tested_on": "CXCL1/8 and S100A8/A9", "test": "ELISA of chemokine secretion by Caski and SW756 cells treated with ruxolitinib", "assay_type": "cell-based, human", "conditions": "for secretion of CXCL1/8 and S100A8/A9: 1 uM Ruxolitinib; for SERPINB3-mediated CXCL1/8 and S100A8/A9 production / chemokine expression: SERPINB3-expressing human cancer cells, summary statement"}, "[2]": {"tested_on": "phosphorylation of STAT1 and STAT3", "test": "Immunoblot of STAT1/3 phosphorylation in Caski and SW756 cells treated with ruxolitinib", "assay_type": "cell-based, human", "conditions": "Ctrl and B3 cells, 1 uM Ruxolitinib for 48 h"}}, "note": "“Also recorded” adds a separate entry of the source. At least one compound was matched to its structure with a doubt left.", "data": [{"smiles": "N#CC[C@H](C1CCCC1)n1cc(-c2ncnc3[nH]ccc23)cn1", "note": "[Ruxolitinib]", "values": [{"measurement": "phase I study result", "setting": "glioblastoma", "result": "promising preliminary result"}, {"measurement": "efficacy and overall survival in clinical trials", "setting": "[1]", "result": "lack of efficacy and very limited or no overall survival benefit"}, {"measurement": "inhibition of STAT signaling", "setting": "STAT signaling", "result": "potent and specific inhibitor"}, {"measurement": "tumor regression, drug sensitivity, angiogenesis", "setting": "mouse models of cancers", "result": "successfully triggered tumor regression, increased drug sensitivity, and prevented angiogenesis"}, {"measurement": "secretion of CXCL1/8 and S100A8/A9", "setting": "CXCL1/8 and S100A8/A9; Caski/B3 cells, ELISA of supernatant", "result": "prevented; also recorded: significantly suppressed"}, {"measurement": "SERPINB3-mediated CXCL1/8 and S100A8/A9 production / chemokine expression", "setting": "CXCL1/8 and S100A8/A9", "result": "abrogated"}, {"measurement": "SERPINB3-mediated CXCL1/8 and S100A8/A9 production / chemokine expression", "setting": "CXCL1/8 and S100A8/A9; listed as ruxolitinib", "result": "abolished; also recorded: abrogated"}, {"measurement": "secretion of CXCL1/8 and S100A8/A9", "setting": "CXCL1/8 and S100A8/A9; SW756/B3 cells", "result": "significantly suppressed"}, {"measurement": "phosphorylation of STAT1 and STAT3 (immunoblot)", "setting": "[2]; Caski WT", "result": "inhibition of STAT1/3 phosphorylation"}, {"measurement": "phosphorylation of STAT1 and STAT3 (immunoblot)", "setting": "[2]; Caski WT, listed as ruxolitinib", "result": "abolished; also recorded: inhibiting the phosphorylation of STAT1 and STAT3 was confirmed"}, {"measurement": "phosphorylation of STAT1 and STAT3 (immunoblot)", "setting": "[2]; SW756 WT", "result": "inhibition of STAT1/3 phosphorylation"}, {"measurement": "phosphorylation of STAT1 and STAT3 (immunoblot)", "setting": "[2]; SW756 WT, listed as ruxolitinib", "result": "inhibiting the phosphorylation of STAT1 and STAT3 was confirmed"}]}]}
